{"source": "patent US10238689B2", "about": "“Methods for combating bacterial infections by killing persister cells with mitomycin C and/or cisplatin” (THE PENN STATE RESEARCH FOUNDATION, priority 2015, dated 2019)", "key": {"[1]": {"system": "gDNA (rrsG and murB) of E. coli K-12 BW25113/pCA24N", "test": "qPCR of gDNA crosslinking in cells (in vivo)", "assay_type": "cell-based, Escherichia coli", "details": "MMC 100 μg/mL 1 h", "procedure": "Overnight cultures (16 h) of E. coli K-12 BW25113/pCA24N grown in LB were diluted 1:1000 in buffered LB and grown to the desired turbidity. For exponential phase cells (i.e., non-persisters), cultures were grown to a turbidity of 2.0 at 600 nm. For rifampicin-induced persisters, cultures were grown to a turbidity of 0.8 at 600 nm, exposed to rifampicin (100 μg/mL) for 30 min, centrifuged, and resuspended in fresh medium to remove the rifampicin. Non-persister and rifampicin-induced persister cultures were treated with MMC (100 μg/mL) for 1 h. gDNA was extracted, using an UltraClean Microbial DNA Isolation Kit (MO BIO Laboratories, Carlsbad, Calif., USA), from samples taken before and after MMC treatment and 100 ng of DNA was used for qPCR of rrsG and murB using the GoTaq qPCR Master Mix (Promega, Madison, Wis., USA) and the StepOne Real-Time PCR System (Applied Biosystems, Foster City, Calif., USA) (primers are shown in Table 2). As a positive control, 3 μg of gDNA from BW25113 non-persisters was crosslinked in vitro with 500 μg/mL (1.5 mM) MMC in 0.2 mM EDTA, 50 mM NaCl, and 5 mM Tris (pH=7.6) with Na2S2O4 added six times at 10 min intervals to reach a final concentration of 2.25 mM (1.5× molarity of MMC). The in vitro crosslinking reaction was performed anaerobically on ice and the reaction was stopped by exposure to air."}, "[2]": {"system": "gDNA (rrsG and murB) from BW25113 non-persisters", "test": "qPCR of gDNA crosslinked in vitro", "assay_type": "biochemical, Escherichia coli", "details": "MMC 500 μg/mL (1.5 mM)"}}}
{"smiles": "CO[C@@]12[C@H](COC(N)=O)C3=C(C(=O)C(C)=C(N)C3=O)N1C[C@@H]1N[C@@H]12", "note": "[MMC, mitomycin C]", "values": [{"measurement": "Ct (after MMC)", "setting": "[1]; Non-persisters, murB", "result": "14.20 ± 0.39"}, {"measurement": "Ct (after MMC)", "setting": "[1]; Non-persisters, rrsG", "result": "10.57 ± 0.35"}, {"measurement": "Ct (after MMC)", "setting": "[1]; Persisters, murB", "result": "15.00 ± 1.24"}, {"measurement": "Ct (after MMC)", "setting": "[1]; Persisters, rrsG", "result": "10.74 ± 1.10"}, {"measurement": "Ct (after MMC)", "setting": "[2]; murB", "result": "21.18 ± 0.37"}, {"measurement": "Ct (after MMC)", "setting": "[2]; rrsG", "result": "17.48 ± 0.01"}]}
